According to the supplement of paper PMC8256030:
Where “and” joins values, the source holds several entries; their conditions need not be identical. Identical values can stand only once. The list shows a part of the results. Repeats in this data set agree poorly, so a single value says little.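 HEK293T cells were given each compound shortly before transfection with a reporter in which red mCherry is followed by the SARS-CoV-2 frameshift element and then GFP in the −1 frame, so GFP appears only after frameshifting.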

Test system: HEK293T
Assay: percent viability (nuclei count) relative to control; higher = more viable cells
Conditions: 10 µM; 24 h

SMILES	percent viability
C[C@@H]1NC(=O)[C@@H](N)CNC(=O)[C@H](C2CCNC(=N)N2)NC(=O)/C(=C/NC(N)=O)NC(=O)[C@H](CNC(=O)CC(N)CCCN)NC1=O.N=C1NCCC([C@@H]2NC(=O)/C(=C/NC(N)=O)NC(=O)[C@H](CNC(=O)CC(N)CCCN)NC(=O)[C@H](CO)NC(=O)[C@@H](N)CNC2=O)N1 (some centres not stated)	303%
O=C1CCc2cc(OCCCCc3nnnn3C3CCCCC3)ccc2N1 [cilostazol]	173%
CC(C)NNC(=O)c1ccncc1 [iproniazid]	235% and 350%
CCCCOc1ccc(C(=O)CCN2CCCCC2)cc1 [dyclonine]	108%
CCCCN1CCCCC1C(=O)Nc1c(C)cccc1C (configuration not stated) [bupivacaine]	275% and 213%
N[C@H](Cc1cc(I)c(Oc2cc(I)c(O)c(I)c2)c(I)c1)C(=O)O [Choloxin]	247%
CC(C)(C)N1CCC(c2ccccc2)(c2ccccc2)CC1 [budipine]	158%
CNCCCC1(c2ccccc2)SC(C)(C)c2ccccc21 (configuration not stated) [talsupram]	164%
O=C1C(=O)c2ccccc2C(O)=C1C1CCC(c2ccc(Cl)cc2)CC1 (configuration not stated) [atovaquone]	216%
COCC(=O)O[C@]1(CCN(C)CCCc2nc3ccccc3[nH]2)CCc2cc(F)ccc2[C@@H]1C(C)C [mibefradil]	104%
C[C@@H]1C[C@H]2[C@@H]3CCC4=CC(=O)C=C[C@]4(C)[C@@]3(Cl)[C@@H](O)C[C@]2(C)[C@@]1(O)C(=O)CCl [mometasone]	334%
CC1(C)O[C@@H]2C[C@H]3[C@@H]4CCC5=CC(=O)C=C[C@]5(C)[C@H]4[C@@H](O)C[C@]3(C)[C@]2(C(=O)CO)O1 [desonide]	123%
